Experimental data: article PMC5951854

Columns and labels:
[1] = molecular target: T1, GST-CD82 WT (mammalian GST fusion) (UniProt P40237); test: pull-down; 293T cells co-transfected (48 h) with mammalian GST-CD82 or truncated mutants and GFP-Rab5 or GFP-Rab22 or their mutants; GST pulldown from lysate, IB with anti-GFP
T1 sequence: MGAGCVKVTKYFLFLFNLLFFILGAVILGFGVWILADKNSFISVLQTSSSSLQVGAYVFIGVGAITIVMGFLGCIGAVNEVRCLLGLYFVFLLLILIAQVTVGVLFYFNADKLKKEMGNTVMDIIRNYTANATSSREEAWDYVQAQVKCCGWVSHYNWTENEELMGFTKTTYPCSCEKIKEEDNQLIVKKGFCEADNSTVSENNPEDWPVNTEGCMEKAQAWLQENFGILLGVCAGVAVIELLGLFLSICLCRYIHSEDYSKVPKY

[2] = molecular target: T2, GST-CD82 truncated mutant, extracellular domain aa32–54 (UniProt P40237); test: as above
T2 sequence: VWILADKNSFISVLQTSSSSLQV

[3] = molecular target: Rab5 (endogenous, mouse BMDMs) (mouse (endogenous in BMDMs)); test: co-IP

Row | binding [1] | binding [2] | binding [3] | Molecule
1 | binds |  |  | GFP-Rab5 Q67L (GTP-bound form)
2 | no binding |  |  | GFP-Rab5 S34N (GDP-bound form)
3 | binds |  |  | GFP-Rab22 Q64L (GTP-bound form)
4 | no binding |  |  | GFP-Rab22 S19L (GDP-bound form)
5 | binds | binds weakly |  | GFP-Rab22 WT
6 |  |  | binds | Rabenosyn-5 (endogenous, mouse BMDMs) (protein, UniProt Q80Y56 1-783) MASLDDPGEVREGFLCPLCLKDLQSFYQLQSHYEEEHLEDRDVKGQIKNLVQKARKAKNKLLKREGDDRVEPGTQGYESFSYGGVDPYMWEPQELGAMRSHLSDFKKHRAARIDHYVVEVNKLIIRLEKLTAFDRTNTETSKIRAIEKSVVPWVNDQDVPFCPDCGNKFSIRNRRHHCRLCGSIMCKKCMELIGLPLAHKLTSASKDSLSTHTSPSQSPNSVHGSRRGSISSMSSVSSVLDEKDDDRIRCCTHCKDKLLKREQQMDEKEHTPDIVKLYEKLRLCMEKVDQKAPEYIRMAASLNAGETTYNLEHANDLRVEVQKVYELIDALSKKILTLGLNQDPSPHPNTLRLQRMIRYSATLFVQEKLLGLMSLPTKEQFEELKKKRKQDLEQKRTVERQAALESRRKLEERQSGLASHTANGDVRSLRGIPPPLRKAEGWLPLSEGQGQSEDPDPLLQQIYNITSFIRQAKAAGRTDEVRTLQENLRQLQDEYDQQQTEKAIELSRKQAEEEELQREQLQMLRKRELEREQEQFLAASLQTRTRVLELREVIPFQLEASRGPHIDLSYSLDQDSSPVQSSTAPDILTPGSALAPMHLWSGPPALGQETLPQSTMSQQSDKASLNPFDEDDLSSPTEGAISPAAVEAFLGPPAAVTKEYNPFEEDAEEEEVAELGAGNPFTDPDSPAPNPFDEDDGPRPASPAAPGNPFEECPSTNPFEVDSDSGMEAEEHIEEELLLQQIDNIKAYIFDAKQCGRMDEVEVLTENLRELKCTLAKQKGAPN

Results are given in words; binding and its absence hold for the method and conditions named. Binding seen in cells or lysates may run through a third protein. Binding calls can cover weak binding; strength is not graded here. For some of these results: Where a sequence is shown, tags or fusion partners need not be part of it.
